The values that follow come from the supplement of paper PMC10849652.

By UniProt entry, the sequences of proteins in these tests, tags left out. Where a name states a change or a piece, a line headed by the entry shows the natural chain unless it says otherwise.
UniProt Q5T5C0: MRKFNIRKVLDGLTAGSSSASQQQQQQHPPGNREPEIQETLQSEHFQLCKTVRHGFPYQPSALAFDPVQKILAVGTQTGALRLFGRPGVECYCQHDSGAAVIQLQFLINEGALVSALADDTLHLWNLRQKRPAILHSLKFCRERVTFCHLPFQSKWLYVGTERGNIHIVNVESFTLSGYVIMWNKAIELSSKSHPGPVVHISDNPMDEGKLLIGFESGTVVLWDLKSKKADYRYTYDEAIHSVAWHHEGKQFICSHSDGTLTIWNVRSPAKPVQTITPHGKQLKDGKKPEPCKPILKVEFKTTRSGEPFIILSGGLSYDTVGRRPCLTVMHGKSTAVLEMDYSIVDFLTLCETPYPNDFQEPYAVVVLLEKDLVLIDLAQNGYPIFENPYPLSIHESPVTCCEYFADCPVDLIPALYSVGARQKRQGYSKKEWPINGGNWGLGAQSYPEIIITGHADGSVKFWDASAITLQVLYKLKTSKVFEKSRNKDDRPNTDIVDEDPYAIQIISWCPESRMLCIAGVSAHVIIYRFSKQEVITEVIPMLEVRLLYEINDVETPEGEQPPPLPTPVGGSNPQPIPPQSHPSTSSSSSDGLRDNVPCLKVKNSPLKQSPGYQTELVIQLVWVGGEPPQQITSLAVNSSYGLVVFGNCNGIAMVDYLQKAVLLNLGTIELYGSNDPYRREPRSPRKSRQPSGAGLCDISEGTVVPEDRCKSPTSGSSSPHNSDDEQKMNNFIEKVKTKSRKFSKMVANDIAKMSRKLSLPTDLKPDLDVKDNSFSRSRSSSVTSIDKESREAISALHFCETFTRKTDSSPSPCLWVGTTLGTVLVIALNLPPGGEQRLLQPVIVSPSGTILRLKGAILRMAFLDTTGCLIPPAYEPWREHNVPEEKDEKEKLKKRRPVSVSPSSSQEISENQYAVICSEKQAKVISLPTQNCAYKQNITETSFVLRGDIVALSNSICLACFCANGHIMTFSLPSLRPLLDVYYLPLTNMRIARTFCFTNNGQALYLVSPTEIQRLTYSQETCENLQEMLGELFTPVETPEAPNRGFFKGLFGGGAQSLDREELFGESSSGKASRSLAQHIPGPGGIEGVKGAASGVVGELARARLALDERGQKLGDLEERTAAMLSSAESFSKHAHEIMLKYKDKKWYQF
UniProt P08247, whole entry, looked up: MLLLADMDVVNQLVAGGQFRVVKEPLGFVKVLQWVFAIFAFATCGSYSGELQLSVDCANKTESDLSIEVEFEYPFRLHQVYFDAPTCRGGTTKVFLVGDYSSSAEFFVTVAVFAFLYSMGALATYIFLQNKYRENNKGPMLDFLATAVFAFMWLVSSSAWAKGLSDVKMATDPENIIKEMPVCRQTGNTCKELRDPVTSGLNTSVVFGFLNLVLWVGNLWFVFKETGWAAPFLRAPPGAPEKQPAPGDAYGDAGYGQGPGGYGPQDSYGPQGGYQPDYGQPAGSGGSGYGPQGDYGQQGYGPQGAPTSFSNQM
UniProt Q16514: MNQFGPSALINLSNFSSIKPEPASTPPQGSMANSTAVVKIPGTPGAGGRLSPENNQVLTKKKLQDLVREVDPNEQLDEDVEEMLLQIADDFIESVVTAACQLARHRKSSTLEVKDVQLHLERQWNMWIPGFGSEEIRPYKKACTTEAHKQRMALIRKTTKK
UniProt Q9P289: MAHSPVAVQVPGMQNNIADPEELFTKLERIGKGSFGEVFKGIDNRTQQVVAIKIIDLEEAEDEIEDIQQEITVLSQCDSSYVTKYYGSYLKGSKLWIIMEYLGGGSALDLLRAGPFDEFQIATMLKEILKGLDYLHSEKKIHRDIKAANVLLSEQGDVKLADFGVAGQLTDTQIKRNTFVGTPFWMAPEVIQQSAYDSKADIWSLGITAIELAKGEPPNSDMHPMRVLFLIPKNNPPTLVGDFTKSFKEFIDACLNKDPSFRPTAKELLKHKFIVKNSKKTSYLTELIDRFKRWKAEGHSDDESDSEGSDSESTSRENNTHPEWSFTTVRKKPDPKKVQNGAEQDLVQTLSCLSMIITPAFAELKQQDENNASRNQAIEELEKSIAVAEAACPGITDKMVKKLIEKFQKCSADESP
UniProt O15056: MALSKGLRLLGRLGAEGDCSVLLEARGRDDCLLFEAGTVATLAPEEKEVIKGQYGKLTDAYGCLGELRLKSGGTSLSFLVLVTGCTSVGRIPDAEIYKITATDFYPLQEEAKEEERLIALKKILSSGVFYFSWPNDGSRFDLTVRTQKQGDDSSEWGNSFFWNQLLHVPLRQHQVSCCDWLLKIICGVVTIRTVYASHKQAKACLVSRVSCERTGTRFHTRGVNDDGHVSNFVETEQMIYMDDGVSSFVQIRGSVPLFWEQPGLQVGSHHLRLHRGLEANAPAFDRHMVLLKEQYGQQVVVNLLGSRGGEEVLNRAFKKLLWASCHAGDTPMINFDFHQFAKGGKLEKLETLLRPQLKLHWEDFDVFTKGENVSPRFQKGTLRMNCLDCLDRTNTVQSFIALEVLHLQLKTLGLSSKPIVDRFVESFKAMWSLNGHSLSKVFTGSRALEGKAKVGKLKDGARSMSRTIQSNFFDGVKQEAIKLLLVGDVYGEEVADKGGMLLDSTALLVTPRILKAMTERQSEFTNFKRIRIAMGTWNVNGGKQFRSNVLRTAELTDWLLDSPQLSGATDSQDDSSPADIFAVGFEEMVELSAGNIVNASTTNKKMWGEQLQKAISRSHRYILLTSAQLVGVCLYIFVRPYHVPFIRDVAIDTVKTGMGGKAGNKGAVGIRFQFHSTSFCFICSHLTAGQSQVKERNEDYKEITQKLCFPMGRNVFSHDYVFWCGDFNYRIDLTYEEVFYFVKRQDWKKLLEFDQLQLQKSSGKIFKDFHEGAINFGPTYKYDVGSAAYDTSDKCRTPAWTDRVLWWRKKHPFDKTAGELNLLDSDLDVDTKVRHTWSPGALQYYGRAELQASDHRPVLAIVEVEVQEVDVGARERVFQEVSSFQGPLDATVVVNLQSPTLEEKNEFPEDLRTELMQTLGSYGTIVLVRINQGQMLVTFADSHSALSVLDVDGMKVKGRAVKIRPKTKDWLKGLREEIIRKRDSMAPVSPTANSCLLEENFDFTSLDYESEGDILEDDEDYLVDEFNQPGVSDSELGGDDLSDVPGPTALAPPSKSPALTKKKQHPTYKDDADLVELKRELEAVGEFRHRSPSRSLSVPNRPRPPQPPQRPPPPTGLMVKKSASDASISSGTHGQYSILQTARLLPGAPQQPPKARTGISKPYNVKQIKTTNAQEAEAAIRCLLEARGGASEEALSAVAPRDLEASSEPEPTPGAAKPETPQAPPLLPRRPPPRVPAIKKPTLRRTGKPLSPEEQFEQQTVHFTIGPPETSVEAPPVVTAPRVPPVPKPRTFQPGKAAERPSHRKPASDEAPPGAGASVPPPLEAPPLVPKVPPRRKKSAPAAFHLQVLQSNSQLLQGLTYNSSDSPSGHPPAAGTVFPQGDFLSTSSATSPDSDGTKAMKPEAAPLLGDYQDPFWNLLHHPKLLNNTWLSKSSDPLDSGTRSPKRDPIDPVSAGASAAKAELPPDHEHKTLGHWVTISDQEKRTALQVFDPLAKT
UniProt Q8NHG7: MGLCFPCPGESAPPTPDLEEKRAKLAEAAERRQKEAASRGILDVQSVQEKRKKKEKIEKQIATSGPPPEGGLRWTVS
UniProt Q6P1X5, whole entry, looked up: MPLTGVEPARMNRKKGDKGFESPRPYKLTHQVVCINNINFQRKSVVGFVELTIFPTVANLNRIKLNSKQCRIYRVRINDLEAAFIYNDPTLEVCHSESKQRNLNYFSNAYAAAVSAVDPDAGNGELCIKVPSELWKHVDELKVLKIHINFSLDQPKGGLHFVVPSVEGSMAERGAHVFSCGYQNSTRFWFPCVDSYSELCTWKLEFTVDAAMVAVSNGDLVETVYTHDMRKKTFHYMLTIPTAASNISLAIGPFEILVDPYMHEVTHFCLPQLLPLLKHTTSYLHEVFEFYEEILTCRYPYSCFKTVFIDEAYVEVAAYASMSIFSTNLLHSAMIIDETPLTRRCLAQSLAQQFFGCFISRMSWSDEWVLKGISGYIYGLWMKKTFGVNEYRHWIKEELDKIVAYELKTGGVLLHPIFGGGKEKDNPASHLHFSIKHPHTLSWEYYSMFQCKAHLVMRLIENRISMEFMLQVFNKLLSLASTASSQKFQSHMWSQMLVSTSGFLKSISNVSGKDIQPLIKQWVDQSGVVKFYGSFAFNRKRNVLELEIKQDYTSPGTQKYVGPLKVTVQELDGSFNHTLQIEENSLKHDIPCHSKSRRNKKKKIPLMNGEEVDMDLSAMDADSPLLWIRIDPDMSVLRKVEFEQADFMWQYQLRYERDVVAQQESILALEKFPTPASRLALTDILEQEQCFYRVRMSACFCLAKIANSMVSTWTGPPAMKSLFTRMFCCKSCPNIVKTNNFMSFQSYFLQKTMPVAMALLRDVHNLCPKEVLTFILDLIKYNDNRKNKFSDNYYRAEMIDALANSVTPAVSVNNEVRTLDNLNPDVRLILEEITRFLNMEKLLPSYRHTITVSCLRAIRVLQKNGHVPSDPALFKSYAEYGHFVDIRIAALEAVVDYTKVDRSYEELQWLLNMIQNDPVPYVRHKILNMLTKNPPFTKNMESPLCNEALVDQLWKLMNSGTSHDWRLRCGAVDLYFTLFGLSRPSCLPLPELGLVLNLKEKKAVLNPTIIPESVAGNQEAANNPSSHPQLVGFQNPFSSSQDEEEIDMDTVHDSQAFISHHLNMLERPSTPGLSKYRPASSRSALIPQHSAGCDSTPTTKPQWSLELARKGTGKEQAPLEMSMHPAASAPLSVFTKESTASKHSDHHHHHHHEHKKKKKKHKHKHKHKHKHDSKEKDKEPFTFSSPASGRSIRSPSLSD
UniProt Q53T94: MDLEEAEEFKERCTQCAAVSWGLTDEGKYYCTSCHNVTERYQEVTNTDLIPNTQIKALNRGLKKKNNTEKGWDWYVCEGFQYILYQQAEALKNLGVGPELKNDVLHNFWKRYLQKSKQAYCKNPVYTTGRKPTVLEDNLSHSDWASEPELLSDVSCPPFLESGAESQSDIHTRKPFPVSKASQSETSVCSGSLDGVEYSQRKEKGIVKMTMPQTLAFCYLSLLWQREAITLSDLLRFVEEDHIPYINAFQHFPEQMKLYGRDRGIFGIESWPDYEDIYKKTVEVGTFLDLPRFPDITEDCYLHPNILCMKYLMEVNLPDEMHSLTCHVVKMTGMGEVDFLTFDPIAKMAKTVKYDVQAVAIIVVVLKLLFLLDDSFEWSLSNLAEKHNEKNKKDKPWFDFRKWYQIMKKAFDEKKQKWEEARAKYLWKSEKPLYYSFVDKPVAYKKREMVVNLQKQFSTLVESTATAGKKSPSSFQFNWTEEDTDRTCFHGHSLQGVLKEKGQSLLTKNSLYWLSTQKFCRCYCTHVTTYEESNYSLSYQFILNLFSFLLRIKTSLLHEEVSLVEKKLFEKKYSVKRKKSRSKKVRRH
UniProt Q13190: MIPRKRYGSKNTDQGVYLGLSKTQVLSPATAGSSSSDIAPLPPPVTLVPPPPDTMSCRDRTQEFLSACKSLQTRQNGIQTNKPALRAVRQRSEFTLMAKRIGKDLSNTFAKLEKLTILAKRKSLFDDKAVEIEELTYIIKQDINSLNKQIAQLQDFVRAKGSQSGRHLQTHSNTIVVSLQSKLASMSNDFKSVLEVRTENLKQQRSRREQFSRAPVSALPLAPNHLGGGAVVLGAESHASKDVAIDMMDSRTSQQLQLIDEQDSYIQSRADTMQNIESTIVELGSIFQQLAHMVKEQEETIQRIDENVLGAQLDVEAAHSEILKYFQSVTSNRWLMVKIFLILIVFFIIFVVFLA
UniProt Q93045: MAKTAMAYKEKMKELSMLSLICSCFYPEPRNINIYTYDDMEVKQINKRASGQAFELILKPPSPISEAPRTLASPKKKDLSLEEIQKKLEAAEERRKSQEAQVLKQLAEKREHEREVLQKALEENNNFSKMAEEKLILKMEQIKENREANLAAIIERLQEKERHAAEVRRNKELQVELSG
UniProt O00186: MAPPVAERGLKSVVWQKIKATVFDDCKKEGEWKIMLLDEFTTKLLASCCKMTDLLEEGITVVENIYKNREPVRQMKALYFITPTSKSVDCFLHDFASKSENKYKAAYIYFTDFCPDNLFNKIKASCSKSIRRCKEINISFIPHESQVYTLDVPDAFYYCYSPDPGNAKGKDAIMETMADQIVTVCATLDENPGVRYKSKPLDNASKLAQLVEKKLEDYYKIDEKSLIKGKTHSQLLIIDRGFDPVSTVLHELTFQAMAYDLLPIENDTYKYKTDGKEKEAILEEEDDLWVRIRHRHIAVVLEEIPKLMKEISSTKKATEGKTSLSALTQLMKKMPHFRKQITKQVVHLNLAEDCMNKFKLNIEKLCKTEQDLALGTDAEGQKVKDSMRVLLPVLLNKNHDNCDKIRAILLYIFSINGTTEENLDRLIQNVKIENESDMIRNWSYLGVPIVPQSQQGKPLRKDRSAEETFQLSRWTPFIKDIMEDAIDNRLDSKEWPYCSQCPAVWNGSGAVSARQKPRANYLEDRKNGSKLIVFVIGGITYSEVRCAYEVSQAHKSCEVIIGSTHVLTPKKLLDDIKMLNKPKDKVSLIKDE

The list shows a part of the results.

Compound in the first experiment: C[C@H](Nc1ncnc2nc[nH]c12)c1cc2cccc(Cl)c2c(=O)n1-c1ccccc1 [duvelisib]
In words: log2 fold change, soluble protein after heating vs DMSO (PISA); higher = thermal stabilisation; K562 lysate, 10 uM; active = over 0.2 and 3.5 SD of the protein, either way, in both replicates (recomputed). The method in brief:
(§1)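 The values are log-two fold changes in thermal stability compared with solvent controls and come from duplicates. They were obtained by TMTpro 16plex LC-MS/MS, with channel sums equalised, on the supernatant after 21,000xg for 90 min. That supernatant came from crude K562 extract at 1 mg/mL protein treated with 10 μM compound for 30 min, heated for 3 min across 48°C-58°C, pooled and brought to 0.5% NP-40 at 4°C.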
In the case of SYNE1 (UniProt Q8NF91), the log2 fold change is inactive: -0.039.

TACO1 (UniProt Q9BSH4): the log2 fold change was inactive: 0.024.

Consider STRN3 (UniProt Q13033), for which the log2 fold change is inactive: 0.008.

As to STXBP5 (UniProt Q5T5C0), the log2 fold change is inactive: -0.017.

Take SUPT16H (UniProt Q9Y5B9): the log2 fold change was inactive: 0.022.

Regarding SYAP1 (UniProt Q96A49), the log2 fold change was inactive: -0.001.

As for TADA1 (UniProt Q96BN2), the log2 fold change is inactive: 0.164.

As for STRN4 isoform 3 (UniProt Q9NRL3), the log2 fold change was inactive: -0.014.

STMN1 (UniProt P16949): the log2 fold change is inactive: -0.014.

Take TAF4B (UniProt Q92750): the log2 fold change is inactive: 0.03.

Regarding SYP (UniProt P08247), the log2 fold change was inactive: 0.003.

As to SUGP1 (UniProt Q8IWZ8), the log2 fold change is inactive: -0.009.

TACC3 (UniProt Q9Y6A5): the log2 fold change is inactive: 0.021.

Turning to TAF12 (UniProt Q16514), the log2 fold change is inactive: 0.018.

As to TAB1 (UniProt Q15750), the log2 fold change was inactive: -0.026.

Regarding STK26 (UniProt Q9P289), the log2 fold change was inactive: 0.005.

As for STRIP1 (UniProt Q5VSL9), the log2 fold change was inactive: 0.03.

On to SYNJ2 (UniProt O15056), for which the log2 fold change was inactive: -0.056.

Regarding SUMF2 (UniProt Q8NBJ7), the log2 fold change is inactive: 0.073.

Take STX18 (UniProt Q9P2W9): the log2 fold change was inactive: -0.029.

For the target STK3 isoform 2 (UniProt Q13188), the log2 fold change is inactive: -0.058.

As for STK39 (UniProt Q9UEW8), the log2 fold change was inactive: 0.087.

SVIP (UniProt Q8NHG7): the log2 fold change was inactive: -0.013.

For the target SYNCRIP (UniProt O60506), the log2 fold change was inactive: 0.013.

As to TAF2 (UniProt Q6P1X5), the log2 fold change was inactive: -0.008.

Consider TADA3 (UniProt O75528), for which the log2 fold change was inactive: -0.002.

As for STRIP2 (UniProt Q9ULQ0), the log2 fold change is inactive: 0.066.

In the case of SUMO1 (UniProt P63165), the log2 fold change was inactive: 0.027.

Regarding SUB1 (UniProt P53999), the log2 fold change is inactive: 0.004.

Consider SYPL1 (UniProt Q16563), for which the log2 fold change was inactive: 0.004.

As to TAF1B (UniProt Q53T94), the log2 fold change is inactive: 0.34.

With SYNRG (UniProt Q9UMZ2), the log2 fold change is inactive: -0.041.

For STX5 (UniProt Q13190), the log2 fold change is inactive: 0.06.

Take STMN2 isoform 2 (UniProt Q93045): the log2 fold change was inactive: -0.008.

For STXBP3 (UniProt O00186), the log2 fold change is inactive: 0.007.

In the case of STRAP isoform 2 (UniProt Q9Y3F4), the log2 fold change is inactive: 0.014.

In the case of SUCLA2 (UniProt Q9P2R7), the log2 fold change was inactive: -0.023.

Compound in another experiment: Cc1cc(Nc2cc(CN3CCOCC3)c3nc(C)c(Cc4ccc(Cl)cc4F)n3n2)n[nH]1 [gandotinib]
The description is as above. An outline of the steps: as §1
Regarding SYNE1 (UniProt Q8NF91), the log2 fold change was inactive: 0.359.

Take TACO1 (UniProt Q9BSH4): the log2 fold change was inactive: 0.042.

For the target STRN3 (UniProt Q13033), the log2 fold change was inactive: -0.085.

Turning to STXBP5 (UniProt Q5T5C0), the log2 fold change was inactive: 0.065.

Turning to SUPT16H (UniProt Q9Y5B9), the log2 fold change was inactive: -0.061.

As for SYAP1 (UniProt Q96A49), the log2 fold change is inactive: 0.153.

TADA1 (UniProt Q96BN2): the log2 fold change was inactive: -0.006.

With STRN4 isoform 3 (UniProt Q9NRL3), the log2 fold change was inactive: 0.037.

Regarding STMN1 (UniProt P16949), the log2 fold change was inactive: 0.

In the case of TAF4B (UniProt Q92750), the log2 fold change is inactive: -0.124.

Take SYP (UniProt P08247): the log2 fold change is inactive: 0.049.

As to SUGP1 (UniProt Q8IWZ8), the log2 fold change was inactive: 0.072.

As to TACC3 (UniProt Q9Y6A5), the log2 fold change is inactive: 0.034.

In the case of TAF12 (UniProt Q16514), the log2 fold change is inactive: 0.031.

As for TAB1 (UniProt Q15750), the log2 fold change is inactive: -0.015.

With STK26 (UniProt Q9P289), the log2 fold change was inactive: 0.061.

Turning to STRIP1 (UniProt Q5VSL9), the log2 fold change is inactive: -0.024.

With SYNJ2 (UniProt O15056), the log2 fold change is inactive: -0.115.

As for SUMF2 (UniProt Q8NBJ7), the log2 fold change was inactive: 0.045.

Consider STX18 (UniProt Q9P2W9), for which the log2 fold change is inactive: -0.093.

Consider STK3 isoform 2 (UniProt Q13188), for which the log2 fold change was active: 0.468.

For the target STK39 (UniProt Q9UEW8), the log2 fold change was inactive: -0.044.

Regarding SVIP (UniProt Q8NHG7), the log2 fold change was inactive: 0.01.

On to SYNCRIP (UniProt O60506), for which the log2 fold change was inactive: -0.033.

Turning to TAF2 (UniProt Q6P1X5), the log2 fold change was inactive: -0.067.

Consider TADA3 (UniProt O75528), for which the log2 fold change was inactive: 0.143.

For the target STRIP2 (UniProt Q9ULQ0), the log2 fold change was inactive: -0.059.

With SUMO1 (UniProt P63165), the log2 fold change was inactive: -0.002.

Consider SUB1 (UniProt P53999), for which the log2 fold change was inactive: 0.012.

For the target SYPL1 (UniProt Q16563), the log2 fold change is inactive: 0.16.

On to TAF1B (UniProt Q53T94), for which the log2 fold change was inactive: -0.157.

Turning to SYNRG (UniProt Q9UMZ2), the log2 fold change is inactive: -0.037.

Consider STX5 (UniProt Q13190), for which the log2 fold change was inactive: -0.068.

For STMN2 isoform 2 (UniProt Q93045), the log2 fold change is inactive: -0.034.

On to STXBP3 (UniProt O00186), for which the log2 fold change was inactive: -0.115.

As for STRAP isoform 2 (UniProt Q9Y3F4), the log2 fold change is inactive: -0.022.

In the case of SUCLA2 (UniProt Q9P2R7), the log2 fold change was inactive: 0.068.
